These are yes or no findings as the source states them, for the method shown. Binding calls can cover weak binding; strength is not graded here.
Columns and labels:
[1] = biological target: Polytomella parva N-acetyl-L-glutamate kinase (Polytomella parva) (UniProt A6XGV3); assay: SPR; as a2, 1000 nM PII incubated and injected with ADP / Mg2+-ADP (for PpaPII on PpaNAGK also 2 mM ADP injected during dissociation); both purified
[2] = biological target: Polytomella parva N-acetyl-L-glutamate kinase (Polytomella parva) (UniProt A6XGV3); assay: SPR; His6-NAGK immobilised on a Ni2+-loaded NTA chip (FC2), strep-tagged PII injected as analyte (50-1000 nM), 25 °C, HBS (10 mM HEPES, 150 mM NaCl, 2 mM MgCl2, 0.005% NP-40, pH 7.5), FC2-FC1; without effector molecules; Kd estimated from ΔRU; both purified
[3] = biological target: Polytomella parva N-acetyl-L-glutamate kinase (Polytomella parva) (UniProt A6XGV3); assay: SPR; as a2, 1000 nM PII incubated and injected with Mg2+-ATP and Gln (Mg2+-ATP alone, or with 2-OG, in some injections); both purified

Protein sequences, listed by entry. Tags and fused reporters are not part of them. Lines headed by an entry give the natural chain unless they say otherwise; changes in a name come on top.
UniProt Q6AUR2: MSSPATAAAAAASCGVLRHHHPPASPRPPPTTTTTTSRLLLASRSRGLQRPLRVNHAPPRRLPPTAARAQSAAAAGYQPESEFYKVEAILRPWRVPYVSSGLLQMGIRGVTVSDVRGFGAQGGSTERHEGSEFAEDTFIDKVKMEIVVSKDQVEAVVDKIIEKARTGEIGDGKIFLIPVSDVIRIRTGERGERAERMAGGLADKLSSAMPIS

Measured: binding

Oryza sativa PII protein (from UniProt Q6AUR2)
binds: [1] | [2] | [3]

From article PMC7027753, “Interaction of N‐acetyl‐L‐glutamate kinase with the PII signal transducer in the non‐photosynthetic alga Polytomella parva: Co‐evolution towards a hetero‐oligomeric enzyme” (The Febs Journal, 2019)
